Only a part is listed here, and it is no random draw.
compound: COC(=O)C#Cc1ccccc1 [methyl 3-phenylpropiolate]; experiment: log2 ratio of iodoacetamide-alkyne labeling of the cysteine site, DMSO over compound (competition); higher = stronger covalent engagement of the cysteine by the compound, active = 1 or more; conditions: 500 µM; treatment time 1 h; system: HEK293T cell lysate
In short: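 HEK293T lysate at 2 mg/mL was treated with vehicle or electrophile (500 µM) for 1 h at ambient temperature, then labelled with iodoacetamide alkyne (1 h), clicked to sCIP-TMT reagents, pooled, digested with trypsin overnight at 37 °C, enriched on streptavidin and eluted with acid. Peptides were analysed by Orbitrap Eclipse LC-MS/MS with FAIMS and quantified in FragPipe, using duplicate channels and three replicates, with cysteines quantified in only one replicate excluded. The log2 competition ratio for each cysteine is the mean control-channel reporter intensity divided by the mean compound-channel reporter intensity.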

Target	log2 ratio of iodoacetamide-alkyne labeling
PGAM5 C168 (UniProt Q96HS1)	inactive: 0.007
ATXN2 C852 (UniProt Q99700)	inactive: 0.736
SPEN C877 (UniProt Q96T58)	inactive: 0.728
MYBBP1A C1009 (UniProt Q9BQG0)	inactive: -0.00668
AHCYL2 C353 (UniProt Q96HN2)	active: 1.13
SPEN C1134 (UniProt Q96T58)	inactive: 0.43
EHMT2 C1115 (UniProt Q96KQ7)	inactive: 0.617
UniProt Q99590_C506	inactive: -0.154
UniProt Q99590_C346	inactive: 0.0497
USP28 C142 (UniProt Q96RU2)	active: 1.47
VRK1 C220 (UniProt Q99986)	inactive: 0.151
NUDCD1 C376 (UniProt Q96RS6)	inactive: 0.65
PUS7 C443 (UniProt Q96PZ0)	inactive: 0.147
MYBBP1A C623 (UniProt Q9BQG0)	inactive: 0.231
MIPEP C116 (UniProt Q99797)	inactive: -0.276
CRBN C441 (UniProt Q96SW2)	inactive: 0.0886
RNF5 C30 (UniProt Q99942)	inactive: 0.0657
MACROD1 C186 (UniProt Q9BQ69)	inactive: 0.109
PBK C70 (UniProt Q96KB5)	inactive: 0.539

Target	log2 ratio of iodoacetamide-alkyne labeling
LYSMD1 C32 (UniProt Q96S90)	inactive: 0.424
SPAG5 C382 (UniProt Q96R06)	inactive: 0.73
NSUN5 C308 (UniProt Q96P11)	inactive: 0.317
ZFR C525 (UniProt Q96KR1)	inactive: 0.266
DOCK7 C1944 (UniProt Q96N67)	inactive: 0.121
UIMC1 C601 (UniProt Q96RL1)	inactive: 0.676
SPAG5 C1035 (UniProt Q96R06)	inactive: 0.251
RBM15 C926 (UniProt Q96T37)	inactive: 0.375
FUBP3 C366 (UniProt Q96I24)	inactive: 0.24
EHMT2 C1175 (UniProt Q96KQ7)	inactive: -0.0216
HSD17B10 C214 (UniProt Q99714)	inactive: 0.734
MMS19 C723 (UniProt Q96T76)	inactive: -0.132
NCAPG C843 (UniProt Q9BPX3)	inactive: 0.347
PSMB7 C74 (UniProt Q99436)	inactive: 0.177
NUDCD1 C32 (UniProt Q96RS6)	inactive: 0.565
PBK C112 (UniProt Q96KB5)	inactive: 0.35
TUBA1C C347 (UniProt Q9BQE3)	inactive: 0.49
UHRF1 C762 (UniProt Q96T88)	inactive: 0.107

Reprinted from the listing (two entries):
Target	log2 ratio of iodoacetamide-alkyne labeling
NUDCD1 C376 (UniProt Q96RS6)	inactive: 0.65
PUS7 C443 (UniProt Q96PZ0)	inactive: 0.147

— the supplement of paper PMC11006884
